# Measurements taken from PubChem BioAssay AID602346 (Broad Institute, 2012).
# Screen size: about 340,000 compounds; about 1,200 (0.35%) were called active. The shares of active, inactive and inconclusive entries below differ from those in the screen. No stated cut-off is given here; in the data, active means inhibition above about 50% (passing the limit was not always enough); inconclusive means no clear call, values can overlap the other calls; inactive means below about 31%.
# Experiment: blockers of Vif multimerization in cells – imaging, HEK293T, single point, primary screen (AID 602346)
# Settings: Vif self-association by quenched fluorescence, 24 h, at 7.49 µM, stronger effect = higher value
row,SMILES,inhibition
1,Nc1c(/C=C2/C=CC(=O)C(O)=C2)c(=O)nc2sc(CC(=O)N3CCCCC3)nn12,inactive: 12.2%
2,CN(C)S(=O)(=O)N1CCN(c2ccc([N+](=O)[O-])c(NC3CC3)c2)CC1,inconclusive: 26.1%
3,COc1cc(C(=O)N/N=C/c2sccc2C)cc(OC)c1OC,active: 75.5%
4,O=C1C2C3CC(C2C(=O)N1c1cccc(Cl)c1)[C@H](O)C3O (some centres undefined),inconclusive: 44.1%
5,Cc1ccc(-c2nc3ncccc3o2)cc1NC(=O)c1ccc2c(c1)OCO2,active: 51%
6,Cc1cc2sc(NC(=O)c3ccco3)nc2cc1Cl,inactive: -2.88%
7,N#Cc1cc2c(=O)n3ccccc3nc2n(-c2ccccc2Cl)c1=O,active: 154%
8,CC[n+]1c(/C=C/N(C)c2ccccc2)n(-c2ccccc2)c2ccc(-c3nc4ccccc4s3)cc21,inconclusive: 43.2%
9,COc1ccc2cc3cc(C(=O)Nc4ccc5c(c4)OCCO5)oc3nc2c1,inconclusive: 34.1%
10,CCc1ccccc1N1CC(C(=O)O)CC1=O (centres undefined),inconclusive: 41.3%
11,c1ccc(-c2csc(-n3cnnn3)n2)cc1,inconclusive: 28.5%
12,CC1(C)CC(O)C(CCC(O)c2ccccc2)C(C)(C)N1 (centres undefined),inconclusive: 42.6%
13,CCOC(=O)C1CCCN(C(=O)c2ccc(Cl)c(S(=O)(=O)N3CCCCC3)c2)C1 (centres undefined),inactive: -15.1%
14,Cc1ccc(NC(=O)CN(C)S(=O)(=O)c2cccc3nsnc23)cc1Cl,inconclusive: 38.2%
15,COc1cc(/C=C/C(=O)N2C(=O)c3cccc(N)c3C2=O)cc(OC)c1OC,inconclusive: 43.5%
16,Cc1c(C(=O)N/N=C/c2ccccc2)[nH]c2ccc(Cl)cc12,inactive: -3.95%
17,NC(=O)c1c(NC(=O)C2COc3ccccc3O2)sc2c1CCN(Cc1ccccc1)C2 (centres undefined),active: 110%
18,CC(Oc1cccc(Cl)c1)C(=O)Nc1nc(-c2ccccn2)cs1 (centres undefined),inactive: -1.44%
19,Cc1ncoc1C(=O)N1CCCC(C(=O)c2ccc(Oc3ccccc3)cc2)C1 (centres undefined),active: 61.4%
20,COc1ccc(OC)c(/C=C2\NC(=O)NC2=O)c1,inactive: -13%
21,CCOC(=O)c1csc(-c2csc(CCNC(=O)c3ccccc3)n2)n1,active: 50.8%
22,CCCOC(=O)C1=C(C)NC2=C(C(=O)CCC2)C1c1cc(OC)ccc1OC (centres undefined),inconclusive: 25.6%
23,COc1ccc2cc3cc(C(=O)NCCN4CCc5ccccc5C4)sc3nc2c1,inactive: 4.78%

row,SMILES,inhibition
1,CC(C)Nc1ncnc2c1ncn2[C@H]1CN(Cc2cccs2)C[C@@H](CO)O1,inconclusive: 27.6%
2,CC(OC(=O)c1ccc(Cl)nc1)C(=O)NC1CCCC1 (centres undefined),inconclusive: 18.9%
3,CCOc1ccc(NC(=O)CSc2nnc(-c3ccncc3)n2CC2CCCO2)cc1 (centres undefined),inconclusive: 46.1%
4,C=C(C)c1ccc(C(C)(C)NC(=O)NCc2ccco2)cc1,inconclusive: 28.1%
5,COc1ccc2oc(=O)c(C(=O)NCc3ccc(C)cc3)cc2c1,inconclusive: 31.4%
6,Cn1c(COc2ccccc2)nnc1SCC(=O)NC1CCCC1,inconclusive: 36.9%
7,Cc1cccc2cc(CN(Cc3nnnn3C3CCCCC3)C3CCCC3)c3nnnn3c12,inconclusive: 42.5%
8,CC(C)n1cnc2cc(NC(=O)c3ccco3)ccc21,inconclusive: 33.1%
9,Cc1ccc(C(C)C)c(OCC#CCN2CCOCC2)c1,inconclusive: 49.2%
10,O=C(c1cc(Cl)c(=O)n(Cc2ccccc2)c1)N1CCOCC1,active: 62.1%
11,Cc1cc(NC(=O)Cn2cnc3sc(C)c(C)c3c2=O)no1,inconclusive: 32.7%
12,NC(=O)CC(NC(=O)c1ccc(Br)cc1)c1ccc(NC2CCCCCC2)c([N+](=O)[O-])c1 (centres undefined),active: 70.5%
13,CC(=O)Oc1ccc(N2C(=O)C3C(C2=O)C(C(=O)c2ccc(Cl)cc2)N2CCCC32)cc1 (centres undefined),inactive: -4.52%
14,COc1cc(/C=C2/OC(=O)c3cc([N+](=O)[O-])ccc32)cc(OC)c1OC,inconclusive: 34.9%
15,CN(CCOC(=O)c1cccc(Br)c1)C(C)(C)C,inconclusive: 24.2%
16,CCN1CCN(C(c2cccs2)C(C)NC(=O)C(=O)N2CCCCC2)CC1 (centres undefined),inconclusive: 41.7%
17,COc1cc(C)c(CN2CCCCC2CO)cc1C (centres undefined),inactive: -4.85%
18,Cc1cc(C)c2c(-c3ccc(F)cc3)c(C#N)c(=O)n(C)c2n1,active: 54.6%
19,CC(=O)Nc1ccc(SCC(=O)c2c(N)n(Cc3ccccc3)c(=O)n(C)c2=O)cc1,inactive: 6.75%
20,COP(=O)(OC)c1nc(-c2cccc3ccccc23)oc1N1CCCCC1,inconclusive: 32.9%
21,CS(=O)(=O)Nc1ccc(C(=O)Nc2ccc(S(=O)(=O)N3CCCC3)cc2)cc1,inconclusive: 32.6%
22,CCOCCCNC(=O)C(NC(=O)c1ccc(=O)[nH]c1)c1ccc(C)cc1 (centres undefined),inconclusive: 31.2%
23,CC(Sc1nccn1C)C(=O)NC1(C#N)CCCCC1 (centres undefined),inconclusive: 28.3%

# Exported tab-delimited: part of the list above.
row	SMILES	inhibition
14	COc1cc(/C=C2/OC(=O)c3cc([N+](=O)[O-])ccc32)cc(OC)c1OC	inconclusive: 34.9%
15	CN(CCOC(=O)c1cccc(Br)c1)C(C)(C)C	inconclusive: 24.2%
16	CCN1CCN(C(c2cccs2)C(C)NC(=O)C(=O)N2CCCCC2)CC1 (centres undefined)	inconclusive: 41.7%
17	COc1cc(C)c(CN2CCCCC2CO)cc1C (centres undefined)	inactive: -4.85%

# (next part)

row,SMILES,inhibition
1,COc1ccc(S(=O)(=O)N2CCOCC2)cc1NC(=O)CN1C(=O)NC2(CCC(C)CC2)C1=O (centres undefined),inconclusive: 28.9%
2,COCCCNC(=O)Cn1c(=O)oc2cc(S(=O)(=O)N3CC(C)CC(C)C3)ccc21 (centres undefined),inactive: -14.1%
3,COc1ccc(O)c(/C=N/NC(=O)c2ccc(CSc3nc(C)cc(C)n3)cc2)c1,inactive: -18.5%
4,COc1ccc(C2/C=C\CN(S(=O)(=O)c3ccc(C)cc3)CC(=O)N2Cc2cccc(F)c2)cc1 (centres undefined),inactive: -2.88%
5,O=C(CNS(=O)(=O)c1ccc([N+](=O)[O-])cc1)N/N=C/c1ccc(O)cc1O,inactive: 1.4%
6,CCOC(=O)C1CCN(C(=O)COc2ccc(N(C)S(=O)(=O)c3cccs3)cc2)CC1,inconclusive: 21%
7,COc1ccc(Oc2nnnn2-c2ccccc2)cc1,inactive: -0.629%
8,O=C(O)[C@H](Cc1ccccc1)NC(=O)N1CCN(c2cccc(C(F)(F)F)c2)CC1,inconclusive: 21.2%
9,O=C(CC(c1ccc(F)cc1)c1ccco1)N1CCCC1 (centres undefined),inconclusive: 37.9%
10,CCCS(=O)(=O)Nc1cccc(-c2cn3c(n2)SCC3)c1,inactive: 2.3%
11,O=C(Cn1cnc([N+](=O)[O-])c1)Nc1ccc(Cl)cc1Cl,active: 64.4%
12,COCc1[nH]nc2c1C(c1sccc1C)C(C#N)=C(N)O2 (centres undefined),inactive: 26%
13,COc1cc(OC)cc(C(=O)NC(C(=O)Nc2ccc3c(c2)OCO3)C(C)C)c1 (centres undefined),active: 125%
14,O=C(NCc1ccco1)c1cccc2c1C(=O)c1ccc(N3CCCC3)cc1S2(=O)=O,inconclusive: 38.1%
15,CC(C)N1CCc2c(sc(NC(=O)c3cc4cc([N+](=O)[O-])ccc4s3)c2C(N)=O)C1,active: 79.7%
16,Cc1ccccc1-c1nc(CN2CCC(C(=O)NCc3cccnc3)CC2)c(C)o1,inactive: 5.19%
17,COc1ccc(CN(C(=O)CN2C(=O)COc3ccccc32)C2CCCC2)c(OC)c1,inactive: -2.3%
18,Cc1ccccc1NC(=O)CSC(N)=O,inconclusive: 22.2%
19,Cc1ccc2c(cnn2C(=O)CCC(=O)N2CCCCC2)c1,inactive: 8.39%
20,CCCCCOc1ccc(Br)cc1/C(C)=N/NC1=NCCN1,active: 75.3%
21,Cc1cccc(-n2c(SCC(=O)Nc3ncc(Cl)cc3Cl)nc3ccccc32)c1,inactive: -1.65%
22,COc1ccc(/C=C/C(=O)NC(=S)NNC(=O)c2cccs2)cc1,active: 66.9%
23,CCCCCC(=O)N1C[C@H](O)[C@@H](n2cc(-c3ccc(F)cc3)nn2)C[C@@H]1c1ccc(C)cc1,inactive: 14.5%

row,SMILES,inhibition
1,COc1ccc(/C=N/NC(=O)c2nnn(-c3nonc3N)c2C)cc1OC,inactive: -2.68%
2,O=C(CN1CCOCC1)NCCNS(=O)(=O)c1ccccc1,inconclusive: 31.1%
3,N#CC1(NC(=O)COc2ccc(C(N)=O)cc2)CCCC1,inconclusive: 46.8%
4,COc1cc(NC(=O)c2ccc(C)cc2C)ccc1NC(=O)c1cccs1,inconclusive: 44.8%
5,O=C(/C=C/c1ccccc1)c1ccccc1,inactive: -3.58%
6,Cc1cc2c(N=O)c(NO)ccc2[nH]1,active: 54.5%
7,CN(C)C(=O)c1ccc(NC(=O)c2cccc(S(=O)(=O)N3CCCCCC3)c2)cc1,inconclusive: 27.6%
8,Clc1ccc2c(NCCNC3CCCCC3)ccnc2c1,inconclusive: 43.1%
9,COc1ccc(C(=O)N(C)C2(C)CCS(=O)(=O)C2)cc1OC (centres undefined),inactive: 17.7%
10,CCn1c(/C=C/c2ccc(F)cc2)nc2ccccc2c1=O,active: 59.6%
11,CN(c1ccccc1)S(=O)(=O)c1cc(C(=O)Nc2nc3ccccc3[nH]2)ccc1Cl,inactive: -13.9%
12,CC(=O)N1c2c(cc(Br)cc2S(=O)(=O)N2CCOCC2)CC1C (centres undefined),active: 62.6%
13,O=C(Nc1nccs1)c1ccc(-c2ccc([N+](=O)[O-])cc2)o1,active: 80.4%
14,CCOC(=O)CCC(=O)Nc1ncnc2c1C(c1ccccc1)c1c(ccc3ccccc13)O2 (centres undefined),inconclusive: 28.5%
15,O=C(CN1CCN(c2ccccn2)CC1)Nc1ccc([N+](=O)[O-])cc1C(=O)Nc1ccccc1F,inactive: -2.72%
16,COc1ccc(C(=O)N2CCN=C2SC)cc1,inconclusive: 34.6%
17,O=C1CCCCCCCN1Cc1ccccc1,inconclusive: 30.9%
18,O=C(Nc1ccc2c(c1)CCC2)c1cccc(S(=O)(=O)N2CCN(c3ccc(F)cc3)CC2)c1,inconclusive: 32.7%
19,Cc1c(C(=O)NCc2ccc(C(C)C)cc2)sc(=O)n1Cc1ccc(S(=O)(=O)N(C)C)cc1,inactive: -7.43%
20,Cn1c(=O)c2cc(NC(=S)NC3CC3)ccc2n1C/C=C/c1ccccc1,inactive: 2.22%
